Here are results for two molecules from PMC10761967.

No constants are given. Whether binding was seen depends on the method and setting. Some binding calls cover weakened binding; strength is not graded here.

The target in one experiment is T1, human POC1B (human) (UniProt Q8TC44).
T1 sequence: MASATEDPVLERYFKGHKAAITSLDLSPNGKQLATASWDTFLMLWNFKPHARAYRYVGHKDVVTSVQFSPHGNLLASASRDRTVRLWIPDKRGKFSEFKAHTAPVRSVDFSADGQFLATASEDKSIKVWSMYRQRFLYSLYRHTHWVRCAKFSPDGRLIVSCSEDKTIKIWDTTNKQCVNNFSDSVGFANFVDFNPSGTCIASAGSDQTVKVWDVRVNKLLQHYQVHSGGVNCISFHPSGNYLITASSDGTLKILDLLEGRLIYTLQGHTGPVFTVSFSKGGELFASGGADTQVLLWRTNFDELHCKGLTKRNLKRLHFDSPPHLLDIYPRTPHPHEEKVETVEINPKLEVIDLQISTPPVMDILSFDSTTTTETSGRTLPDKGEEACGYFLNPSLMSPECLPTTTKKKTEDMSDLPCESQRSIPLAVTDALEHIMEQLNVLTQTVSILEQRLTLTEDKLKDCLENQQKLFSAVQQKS
Briefly: two-hybrid; GAL4-based yeast two-hybrid, GAL4-BD (pGBKT7) and GAL4-AD (pGADT7) fusions co-transformed in yeast strain AH109; selection on DDO (-Leu, -Trp), interaction confirmed on TDO (-Leu, -Trp, -His) and QDO (-Leu, -Trp, -His, -Ade).

Experiment [1] has as its target T2, human POC1B C-terminus, amino acids 365–478 (human) (UniProt Q8TC44).
T2 sequence: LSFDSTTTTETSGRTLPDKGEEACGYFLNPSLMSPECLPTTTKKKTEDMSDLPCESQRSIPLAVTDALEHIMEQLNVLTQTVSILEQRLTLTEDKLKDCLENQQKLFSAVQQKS
Described as above.

B1: human FAM161A type 2, amino acids 1–141 (domain or fragment, UniProt Q3B820-3 1-141)
chain: MATSHRVAKLVASSLQTPVNPITGARVAQYEREDPLKALAAAEAILEDEEEEKVAQPAGASADLNTSFSGVDEHAPISYEDFVNFPDIHHSNEEYFKKVEELKAAHIETMAKLEKMYQDKLHLKEVQPVVIREDSLSDSSR
Regarding B1, the binding entry in the experiment with human POC1B (human) was “binds”.

B2: human POC5 N-terminus, amino acids 1–222 (domain or fragment, UniProt Q8NA72 1-222)
chain: MSSDEEKYSLPVVQNDSSRGSSVSSNLQEEYEELLHYAIVTPNIEPCASQSSHPKGELVPDVRISTIHDILHSQGNNSEVRETAIEVGKGCDFHISSHSKTDESSPVLSPRKPSHPVMDFFSSHLLADSSSPATNSSHTDAHEILVSDFLVSDENLQKMENVLDLWSSGLKTNIISELSKWRLNFIDWHRMEMRKEKEKHAAHLKQLCNQINELKELQKTFE
Consider B2, for which the binding result in experiment [1] is given as “binds”.
